Measurements published in patent US20220401589A1, “PRE-TARGETING IMAGING AGENTS” (Eli Lilly and Company, priority 2019, published 2022).
The source gives many values for each of these; only a part stands here.

Experiment: Dynamic PET-CT imaging, tracer uptake in brain, muscle and bone
Assay type: in vivo, Male CD-1 mice
Experimental: PET-CT imaging of [^18F]—N-(4-(1,2,4,5-tetrazin-3-yl)benzyl)-4-fluorobenzamide
A Siemens Inveon® Multimodality Scanner (Siemens, Germany) is used for micro PET/CT imaging. Male CD-1 (6-week-old, ˜30 g) mice are anesthetized with 3% isoflurane/97% oxygen and placed on the bed of the scanner. The mice are administered [^18F]—N-(4-(1,2,4,5-tetrazin-3-yl)benzyl)-4-fluorobenzamide via a bolus intravenous tail vein injection (˜[…] in a total volume of 200 μL saline). A total of six (four 60 min and two 90 min) dynamic PET scans are conducted, followed by a short high-resolution CT scan for anatomical registration. PET images are generated for each minute of the acquisition time. Uptake of the tracer in the brain, muscle, and bone are determined by visually drawing regions of interest (ROIs) based on the fused PET/CT images and the corresponding activity values are determined using the Inveon® Research Workplace software. All values are represented as % injected dose per gram (% ID/g).
Bone uptake throughout the scan period remained low, consistent with an absence of defluorination for this tracer. Results of the 90 min scans are similar to the 60 min scan results with peak brain uptake observed at 3.4% ID/g at 2.5 min post injection followed by an immediate wash out to 0.6% ID/g by 59.5 min. Residual uptake is also observed throughout the body of the mouse. Time activity curves are generated for [^18F]—N-(4-(1,2,4,5-tetrazin-3-yl)benzyl)-4-fluorobenzamide in CD-1 male mice (n=4). Data is shown in graphical format in FIGS. 1A and 1B and in tabular format below.

[1] = 90-minute PET scan, time 59.5 min
[2] = 90-minute PET scan, time 60.5 min
[3] = 90-minute PET scan, time 61.5 min
[4] = 90-minute PET scan, time 62.5 min
[5] = 90-minute PET scan, time 63.5 min
[6] = 90-minute PET scan, time 64.5 min
[7] = 90-minute PET scan, time 65.5 min
[8] = 90-minute PET scan, time 66.5 min
[9] = 90-minute PET scan, time 67.5 min
[10] = 90-minute PET scan, time 68.5 min
[11] = 90-minute PET scan, time 69.5 min
[12] = 90-minute PET scan, time 70.5 min
[13] = 90-minute PET scan, time 71.5 min
[14] = 90-minute PET scan, time 72.5 min
[15] = 90-minute PET scan, time 73.5 min
[16] = 90-minute PET scan, time 74.5 min
[17] = 90-minute PET scan, time 75.5 min
[18] = 90-minute PET scan, time 76.5 min
[19] = 90-minute PET scan, time 77.5 min
[20] = 90-minute PET scan, time 78.5 min
[21] = 90-minute PET scan, time 79.5 min
[22] = 90-minute PET scan, time 80.5 min
[23] = 90-minute PET scan, time 81.5 min
[24] = 90-minute PET scan, time 82.5 min
[25] = 90-minute PET scan, time 83.5 min
[26] = 90-minute PET scan, time 84.5 min
[27] = 90-minute PET scan, time 85.5 min
[28] = 90-minute PET scan, time 86.5 min
[29] = 90-minute PET scan, time 87.5 min
[30] = 90-minute PET scan, time 88.5 min
[31] = 90-minute PET scan, time 89.4 min
[32] = 60 minute PET scan, time 0.5 min
[33] = 60 minute PET scan, time 1.5 min
[34] = 60 minute PET scan, time 34.5 min
[35] = 60 minute PET scan, time 35.5 min
[36] = 60 minute PET scan, time 36.5 min
[37] = 60 minute PET scan, time 37.5 min
[38] = 60 minute PET scan, time 38.5 min
[39] = 60 minute PET scan, time 39.5 min
[40] = 60 minute PET scan, time 40.5 min
[41] = 60 minute PET scan, time 41.5 min
[42] = 60 minute PET scan, time 42.5 min
[43] = 60 minute PET scan, time 43.5 min
[44] = 60 minute PET scan, time 44.5 min
[45] = 60 minute PET scan, time 45.5 min
[46] = 60 minute PET scan, time 46.5 min
[47] = 60 minute PET scan, time 47.5 min
[48] = 60 minute PET scan, time 48.5 min
[49] = 60 minute PET scan, time 49.5 min
[50] = 60 minute PET scan, time 50.5 min
[51] = 60 minute PET scan, time 51.5 min
[52] = 60 minute PET scan, time 52.5 min
[53] = 60 minute PET scan, time 53.5 min
[54] = 60 minute PET scan, time 54.5 min
[55] = 60 minute PET scan, time 55.5 min
[56] = 60 minute PET scan, time 56.5 min
[57] = 60 minute PET scan, time 57.5 min
[58] = 60 minute PET scan, time 58.5 min
[59] = 60 minute PET scan, time 59.5 min

Structure (SMILES): O=C(NCc1ccc(-c2nncnn2)cc1)c1ccc([18F])cc1 [[^18F]—N-(4-(1,2,4,5-tetrazin-3-yl)benzyl)-4-fluorobenzamide]
- Muscle Mean (90-minute PET scan, time 58.5 min): 0.67 % ID/g
- Bone Mean [1]: 0.58 % ID/g
- Brain Mean [1]: 0.62 % ID/g
- Muscle Mean [1]: 0.63 % ID/g
- Bone Mean [2]: 0.70 % ID/g
- Brain Mean [2]: 0.62 % ID/g
- Muscle Mean [2]: 0.63 % ID/g
- Bone Mean [3]: 0.76 % ID/g
- Brain Mean [3]: 0.62 % ID/g
- Muscle Mean [3]: 0.65 % ID/g
- Bone Mean [4]: 0.79 % ID/g
- Brain Mean [4]: 0.62 % ID/g
- Muscle Mean [4]: 0.65 % ID/g
- Bone Mean [5]: 0.79 % ID/g
- Brain Mean [5]: 0.62 % ID/g
- Muscle Mean [5]: 0.69 % ID/g
- Bone Mean [6]: 0.65 % ID/g
- Brain Mean [6]: 0.62 % ID/g
- Muscle Mean [6]: 0.57 % ID/g
- Bone Mean [7]: 0.66 % ID/g
- Brain Mean [7]: 0.62 % ID/g
- Muscle Mean [7]: 0.63 % ID/g
- Bone Mean [8]: 0.79 % ID/g
- Brain Mean [8]: 0.62 % ID/g
- Muscle Mean [8]: 0.69 % ID/g
- Bone Mean [9]: 0.89 % ID/g
- Brain Mean [9]: 0.63 % ID/g
- Muscle Mean [9]: 0.70 % ID/g
- Bone Mean [10]: 0.71 % ID/g
- Brain Mean [10]: 0.64 % ID/g
- Muscle Mean [10]: 0.64 % ID/g
- Bone Mean [11]: 0.68 % ID/g
- Brain Mean [11]: 0.64 % ID/g
- Muscle Mean [11]: 0.63 % ID/g
- Bone Mean [12]: 0.53 % ID/g
- Brain Mean [12]: 0.63 % ID/g
- Muscle Mean [12]: 0.61 % ID/g
- Bone Mean [13]: 0.82 % ID/g
- Brain Mean [13]: 0.63 % ID/g
- Muscle Mean [13]: 0.67 % ID/g
- Bone Mean [14]: 0.74 % ID/g
- Brain Mean [14]: 0.64 % ID/g
- Muscle Mean [14]: 0.65 % ID/g
- Bone Mean [15]: 0.73 % ID/g
- Brain Mean [15]: 0.64 % ID/g
- Muscle Mean [15]: 0.68 % ID/g
- Bone Mean [16]: 0.72 % ID/g
- Brain Mean [16]: 0.65 % ID/g
- Muscle Mean [16]: 0.68 % ID/g
- Bone Mean [17]: 0.67 % ID/g
- Brain Mean [17]: 0.66 % ID/g
- Muscle Mean [17]: 0.63 % ID/g
- Bone Mean [18]: 0.58 % ID/g
- Brain Mean [18]: 0.65 % ID/g
- Muscle Mean [18]: 0.68 % ID/g
- Bone Mean [19]: 0.63 % ID/g
- Brain Mean [19]: 0.65 % ID/g
- Muscle Mean [19]: 0.66 % ID/g
- Bone Mean [20]: 0.71 % ID/g
- Brain Mean [20]: 0.64 % ID/g
- Muscle Mean [20]: 0.63 % ID/g
- Bone Mean [21]: 0.51 % ID/g
- Brain Mean [21]: 0.65 % ID/g
- Muscle Mean [21]: 0.69 % ID/g
- Bone Mean [22]: 0.70 % ID/g
- Brain Mean [22]: 0.65 % ID/g
- Muscle Mean [22]: 0.66 % ID/g
- Bone Mean [23]: 0.56 % ID/g
- Brain Mean [23]: 0.66 % ID/g
- Muscle Mean [23]: 0.66 % ID/g
- Bone Mean [24]: 0.76 % ID/g
- Brain Mean [24]: 0.65 % ID/g
- Muscle Mean [24]: 0.68 % ID/g
- Bone Mean [25]: 0.77 % ID/g
- Brain Mean [25]: 0.65 % ID/g
- Muscle Mean [25]: 0.68 % ID/g
- Bone Mean [26]: 0.70 % ID/g
- Brain Mean [26]: 0.66 % ID/g
- Muscle Mean [26]: 0.70 % ID/g
- Bone Mean [27]: 0.57 % ID/g
- Brain Mean [27]: 0.65 % ID/g
- Muscle Mean [27]: 0.67 % ID/g
- Bone Mean [28]: 0.59 % ID/g
- Brain Mean [28]: 0.66 % ID/g
- Muscle Mean [28]: 0.68 % ID/g
- Bone Mean [29]: 0.76 % ID/g
- Brain Mean [29]: 0.66 % ID/g
- Muscle Mean [29]: 0.71 % ID/g
- Bone Mean [30]: 0.81 % ID/g
- Brain Mean [30]: 0.66 % ID/g
- Muscle Mean [30]: 0.66 % ID/g
- Bone Mean [31]: 0.76 % ID/g
- Brain Mean [31]: 0.66 % ID/g
- Muscle Mean [31]: 0.70 % ID/g
- Bone Mean (60 minute PET scan, time 0 min): 0 % ID/g
- Brain Mean (60 minute PET scan, time 0 min): 0 % ID/g
- Muscle Mean (60 minute PET scan, time 0 min): 0 % ID/g
- Bone Mean [32]: 0.08 % ID/g
- Brain Mean [32]: 0.32 % ID/g
- Muscle Mean [32]: 0.02 % ID/g
- Bone Mean [33]: 0.97 % ID/g
- Brain Mean [33]: 3.67 % ID/g
- Muscle Mean [33]: 0.84 % ID/g
- Bone Mean [34]: 0.87 % ID/g
- Muscle Mean [34]: 0.92 % ID/g
- Bone Mean [35]: 0.84 % ID/g
- Brain Mean [35]: 1.03 % ID/g
- Muscle Mean [35]: 0.91 % ID/g
- Bone Mean [36]: 0.84 % ID/g
- Brain Mean [36]: 1.00 % ID/g
- Muscle Mean [36]: 0.93 % ID/g
- Bone Mean [37]: 0.90 % ID/g
- Brain Mean [37]: 0.98 % ID/g
- Muscle Mean [37]: 0.91 % ID/g
- Bone Mean [38]: 0.87 % ID/g
- Brain Mean [38]: 0.97 % ID/g
- Muscle Mean [38]: 0.93 % ID/g
- Bone Mean [39]: 0.85 % ID/g
- Brain Mean [39]: 0.97 % ID/g
- Muscle Mean [39]: 0.97 % ID/g
- Bone Mean [40]: 0.89 % ID/g
- Brain Mean [40]: 0.95 % ID/g
- Muscle Mean [40]: 0.93 % ID/g
- Bone Mean [41]: 0.93 % ID/g
- Brain Mean [41]: 0.93 % ID/g
- Muscle Mean [41]: 0.89 % ID/g
- Bone Mean [42]: 0.88 % ID/g
- Brain Mean [42]: 0.93 % ID/g
- Muscle Mean [42]: 0.95 % ID/g
- Bone Mean [43]: 0.75 % ID/g
- Brain Mean [43]: 0.91 % ID/g
- Muscle Mean [43]: 0.88 % ID/g
- Bone Mean [44]: 0.87 % ID/g
- Brain Mean [44]: 0.90 % ID/g
- Muscle Mean [44]: 0.91 % ID/g
- Bone Mean [45]: 0.86 % ID/g
- Brain Mean [45]: 0.89 % ID/g
- Muscle Mean [45]: 0.95 % ID/g
- Bone Mean [46]: 0.79 % ID/g
- Brain Mean [46]: 0.87 % ID/g
- Muscle Mean [46]: 0.92 % ID/g
- Bone Mean [47]: 0.87 % ID/g
- Brain Mean [47]: 0.87 % ID/g
- Muscle Mean [47]: 0.95 % ID/g
- Bone Mean [48]: 0.86 % ID/g
- Brain Mean [48]: 0.86 % ID/g
- Muscle Mean [48]: 0.86 % ID/g
- Bone Mean [49]: 0.87 % ID/g
- Brain Mean [49]: 0.86 % ID/g
- Muscle Mean [49]: 0.99 % ID/g
- Bone Mean [50]: 0.90 % ID/g
- Brain Mean [50]: 0.85 % ID/g
- Muscle Mean [50]: 0.91 % ID/g
- Bone Mean [51]: 0.92 % ID/g
- Brain Mean [51]: 0.85 % ID/g
- Muscle Mean [51]: 0.88 % ID/g
- Bone Mean [52]: 0.85 % ID/g
- Brain Mean [52]: 0.84 % ID/g
- Muscle Mean [52]: 0.81 % ID/g
- Bone Mean [53]: 0.85 % ID/g
- Brain Mean [53]: 0.85 % ID/g
- Muscle Mean [53]: 0.96 % ID/g
- Bone Mean [54]: 0.80 % ID/g
- Brain Mean [54]: 0.84 % ID/g
- Muscle Mean [54]: 0.91 % ID/g
- Bone Mean [55]: 0.85 % ID/g
- Brain Mean [55]: 0.83 % ID/g
- Muscle Mean [55]: 0.87 % ID/g
- Bone Mean [56]: 0.93 % ID/g
- Brain Mean [56]: 0.82 % ID/g
- Muscle Mean [56]: 0.91 % ID/g
- Bone Mean [57]: 0.84 % ID/g
- Brain Mean [57]: 0.82 % ID/g
- Muscle Mean [57]: 0.82 % ID/g
- Bone Mean [58]: 0.89 % ID/g
- Brain Mean [58]: 0.81 % ID/g
- Muscle Mean [58]: 0.83 % ID/g
- Bone Mean [59]: 0.88 % ID/g
- Brain Mean [59]: 0.82 % ID/g
- Muscle Mean [59]: 0.88 % ID/g
